Experimental data: PubChem BioAssay AID652272 (Drosophila RNAi Screening Center, 2013)
Test: 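Finding fly genes that regulate Hedgehog signal transduction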 (primary screen). System: Drosophila clone 8 (Cl8) cells. Reagents: long dsRNA against Drosophila genes. Read-out: 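Plate reader light from a firefly reporter under a ptc promoter fragment that responds to Hedgehog, with Renilla light as transfection reference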. Reading the numbers: firefly Hh reporter signal: higher = more ptc reporter light; Renilla reference signal: higher = more Renilla control light. Active means: 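Called a hit if the two-replicate mean z-score lies below -2 or above +3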. Calls: active = hit: reporter lowered or raised; inactive = not a hit.
The deposit covers about 21,000 reagents; below is an unselected part of those that have a named target and a result. Of all reagents, 503 (2.4%) got an active call. 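Raw plate light values, not normalised; calls rest on replicate z-scores that were not deposited; hits include reporter decreases as well as increases.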 Names joined by + are all predicted targets of the reagent. Not given: the amount of reagent, the time to read-out.

{"Target gene": "CG42331", "amplicon": "DRSC14633", "firefly Hh reporter signal, replicate 1": 5.28e5, "firefly Hh reporter signal, replicate 2": 72768, "Renilla reference signal, replicate 1": 2210, "Renilla reference signal, replicate 2": 2210, "outcome": "inactive"}
{"Target gene": "CG42331", "amplicon": "DRSC16126", "firefly Hh reporter signal, replicate 1": 5.84e5, "firefly Hh reporter signal, replicate 2": 1.22e5, "Renilla reference signal, replicate 1": 30961, "Renilla reference signal, replicate 2": 3908, "outcome": "inactive"}
{"Target gene": "Nazo", "amplicon": "DRSC14343", "firefly Hh reporter signal, replicate 1": 61192, "firefly Hh reporter signal, replicate 2": 1.02e5, "Renilla reference signal, replicate 1": 2570, "Renilla reference signal, replicate 2": 3592, "outcome": "inactive"}
{"Target gene": "CanB", "amplicon": "DRSC18449", "firefly Hh reporter signal, replicate 1": 51308, "firefly Hh reporter signal, replicate 2": 1.38e5, "Renilla reference signal, replicate 1": 1026, "Renilla reference signal, replicate 2": 4908, "outcome": "inactive"}
{"Target gene": "CG11362", "amplicon": "DRSC04106", "firefly Hh reporter signal, replicate 1": 1.23e5, "firefly Hh reporter signal, replicate 2": 92256, "Renilla reference signal, replicate 1": 2344, "Renilla reference signal, replicate 2": 8248, "outcome": "inactive"}
{"Target gene": "Tsp42Ed", "amplicon": "DRSC05940", "firefly Hh reporter signal, replicate 1": 1.04e5, "firefly Hh reporter signal, replicate 2": 54600, "Renilla reference signal, replicate 1": 2515, "Renilla reference signal, replicate 2": 4754, "outcome": "inactive"}
{"Target gene": "pros", "amplicon": "DRSC12856", "firefly Hh reporter signal, replicate 1": 46074, "firefly Hh reporter signal, replicate 2": 1.98e5, "Renilla reference signal, replicate 1": 8592, "Renilla reference signal, replicate 2": 3772, "outcome": "inactive"}
{"Target gene": "pros", "amplicon": "DRSC17032", "firefly Hh reporter signal, replicate 1": 2.26e5, "firefly Hh reporter signal, replicate 2": 1.42e5, "Renilla reference signal, replicate 1": 7600, "Renilla reference signal, replicate 2": 5353, "outcome": "inactive"}
{"Target gene": "Ir54a + sub", "amplicon": "DRSC06459", "firefly Hh reporter signal, replicate 1": 97516, "firefly Hh reporter signal, replicate 2": 43301, "Renilla reference signal, replicate 1": 2838, "Renilla reference signal, replicate 2": 2944, "outcome": "inactive"}
{"Target gene": "Arl4", "amplicon": "DRSC17156", "firefly Hh reporter signal, replicate 1": 92731, "firefly Hh reporter signal, replicate 2": 2.54e5, "Renilla reference signal, replicate 1": 3411, "Renilla reference signal, replicate 2": 9803, "outcome": "inactive"}
{"Target gene": "MICU1", "amplicon": "DRSC02752", "firefly Hh reporter signal, replicate 1": 34960, "firefly Hh reporter signal, replicate 2": 64005, "Renilla reference signal, replicate 1": 1907, "Renilla reference signal, replicate 2": 2515, "outcome": "inactive"}
{"Target gene": "Yp3", "amplicon": "DRSC20302", "firefly Hh reporter signal, replicate 1": 99539, "firefly Hh reporter signal, replicate 2": 2.54e5, "Renilla reference signal, replicate 1": 3229, "Renilla reference signal, replicate 2": 10221, "outcome": "inactive"}
{"Target gene": "CG4069", "amplicon": "DRSC10396", "firefly Hh reporter signal, replicate 1": 1.15e5, "firefly Hh reporter signal, replicate 2": 69373, "Renilla reference signal, replicate 1": 4845, "Renilla reference signal, replicate 2": 3360, "outcome": "inactive"}
{"Target gene": "CG9372", "amplicon": "DRSC11068", "firefly Hh reporter signal, replicate 1": 1.07e5, "firefly Hh reporter signal, replicate 2": 96740, "Renilla reference signal, replicate 1": 3723, "Renilla reference signal, replicate 2": 2810, "outcome": "inactive"}
{"Target gene": "vari", "amplicon": "DRSC03202", "firefly Hh reporter signal, replicate 1": 72384, "firefly Hh reporter signal, replicate 2": 59001, "Renilla reference signal, replicate 1": 1863, "Renilla reference signal, replicate 2": 4865, "outcome": "inactive"}
{"Target gene": "Timp", "amplicon": "DRSC17082", "firefly Hh reporter signal, replicate 1": 1.55e5, "firefly Hh reporter signal, replicate 2": 93990, "Renilla reference signal, replicate 1": 5959, "Renilla reference signal, replicate 2": 3634, "outcome": "inactive"}
{"Target gene": "CG15927", "amplicon": "DRSC19742", "firefly Hh reporter signal, replicate 1": 1.08e5, "firefly Hh reporter signal, replicate 2": 2.54e5, "Renilla reference signal, replicate 1": 3179, "Renilla reference signal, replicate 2": 9740, "outcome": "inactive"}
{"Target gene": "bsf", "amplicon": "DRSC02035", "firefly Hh reporter signal, replicate 1": 40560, "firefly Hh reporter signal, replicate 2": 96843, "Renilla reference signal, replicate 1": 1909, "Renilla reference signal, replicate 2": 3466, "outcome": "inactive"}
{"Target gene": "CG17574", "amplicon": "DRSC06681", "firefly Hh reporter signal, replicate 1": 1.22e5, "firefly Hh reporter signal, replicate 2": 8.65e5, "firefly Hh reporter signal, replicate 3": 72699, "Renilla reference signal, replicate 1": 2586, "Renilla reference signal, replicate 2": 48432, "outcome": "inactive"}
{"Target gene": "upSET", "amplicon": "DRSC11051", "firefly Hh reporter signal, replicate 1": 65664, "firefly Hh reporter signal, replicate 2": 17622, "Renilla reference signal, replicate 1": 2070, "Renilla reference signal, replicate 2": 681, "outcome": "inactive"}
{"Target gene": "Rpn10", "amplicon": "DRSC11876", "firefly Hh reporter signal, replicate 1": 71607, "firefly Hh reporter signal, replicate 2": 71242, "Renilla reference signal, replicate 1": 3459, "Renilla reference signal, replicate 2": 2696, "outcome": "inactive"}
{"Target gene": "CG34305", "amplicon": "DRSC11995", "firefly Hh reporter signal, replicate 1": 2.27e5, "Renilla reference signal, replicate 1": 5136, "outcome": "inactive"}
{"Target gene": "Fitm", "amplicon": "DRSC09772", "firefly Hh reporter signal, replicate 1": 93381, "firefly Hh reporter signal, replicate 2": 59655, "Renilla reference signal, replicate 1": 4192, "Renilla reference signal, replicate 2": 2776, "outcome": "inactive"}
{"Target gene": "Mur82C", "amplicon": "DRSC12011", "firefly Hh reporter signal, replicate 1": 1.92e5, "Renilla reference signal, replicate 1": 5184, "outcome": "inactive"}
{"Target gene": "Mur82C", "amplicon": "DRSC12212", "firefly Hh reporter signal, replicate 1": 1.74e5, "firefly Hh reporter signal, replicate 2": 1.41e5, "Renilla reference signal, replicate 1": 5491, "Renilla reference signal, replicate 2": 3331, "outcome": "inactive"}
{"Target gene": "vsg", "amplicon": "DRSC10219", "firefly Hh reporter signal, replicate 1": 29824, "firefly Hh reporter signal, replicate 2": 65810, "firefly Hh reporter signal, replicate 3": 50588, "Renilla reference signal, replicate 1": 7296, "Renilla reference signal, replicate 2": 4033, "outcome": "inactive"}
{"Target gene": "Nlp", "amplicon": "DRSC16759", "firefly Hh reporter signal, replicate 1": 72229, "firefly Hh reporter signal, replicate 2": 54520, "Renilla reference signal, replicate 1": 2608, "Renilla reference signal, replicate 2": 2304, "outcome": "inactive"}

Records listed so far whose target name begins with P or p (2):
{"Target gene": "pros", "amplicon": "DRSC12856", "firefly Hh reporter signal, replicate 1": 46074, "firefly Hh reporter signal, replicate 2": 1.98e5, "Renilla reference signal, replicate 1": 8592, "Renilla reference signal, replicate 2": 3772, "outcome": "inactive"}
{"Target gene": "pros", "amplicon": "DRSC17032", "firefly Hh reporter signal, replicate 1": 2.26e5, "firefly Hh reporter signal, replicate 2": 1.42e5, "Renilla reference signal, replicate 1": 7600, "Renilla reference signal, replicate 2": 5353, "outcome": "inactive"}
